Data: patent US20210198349A1 (NEW YORK UNIVERSITY, published 2021)
Positions count from the first letter of the chain named. These are yes or no findings as the source states them, for the method shown. A result given as binding can be weak or reduced; the word gives no strength. Each block holds one binder with its values, some of them ahead of it.

Target: PHF purified from human AD brain (human)
Test: dot blot on PHF purified from human AD brain

binding: binds
B1: Antibody 5G2A3 (antibody, V domains shown)
VH: EVKLVESGGGLVKPGGSLTLSCAASGFTFSSYAMSWVRQTPEKSLEWVASISSGGNTFYPDTVKGRFTISRDNARNILYLQMSGLRSEDTAIYYCARRGDPNMITTLFGYWGQGTLVTISA
VL: DVLMTQTPLSLPVSLGDQASISCRSSQSILHRNGNTYLDWFLLKPGQSPKLLIYKVSNRFSGVPDRFSGSGSGTDFTLKISRVEAEDLGVYYCFQGSHVPWTFGGGTKLEIK
notes: Hybridoma-derived monoclonal antibody; also called 5G2A3/5G2G6

binding: binds
B2: Antibody 1G11A10 (antibody, V domains shown)
VH: EVKLVESGGGLMKPGGSLKLSCAASGFTFSSYAMSWVRQSPEKRLEWVASISSGGQTYSPDSVKGRFTISRDNARNILYLQMRNLRSEDTAMYYCASRGDPTMTATLFVYWGQGTLVTVS
VL: B1 VL with L30I, H31N, R32S, D39E, F41Y, L43Q, A85T, V90I
notes: Hybridoma-derived monoclonal antibody
